In this assay the target is T1, FLAG-MFSD4A (major facilitator superfamily domain containing 4 A), stably expressed in SUNE1 cells (UniProt Q8N468).
T1 sequence: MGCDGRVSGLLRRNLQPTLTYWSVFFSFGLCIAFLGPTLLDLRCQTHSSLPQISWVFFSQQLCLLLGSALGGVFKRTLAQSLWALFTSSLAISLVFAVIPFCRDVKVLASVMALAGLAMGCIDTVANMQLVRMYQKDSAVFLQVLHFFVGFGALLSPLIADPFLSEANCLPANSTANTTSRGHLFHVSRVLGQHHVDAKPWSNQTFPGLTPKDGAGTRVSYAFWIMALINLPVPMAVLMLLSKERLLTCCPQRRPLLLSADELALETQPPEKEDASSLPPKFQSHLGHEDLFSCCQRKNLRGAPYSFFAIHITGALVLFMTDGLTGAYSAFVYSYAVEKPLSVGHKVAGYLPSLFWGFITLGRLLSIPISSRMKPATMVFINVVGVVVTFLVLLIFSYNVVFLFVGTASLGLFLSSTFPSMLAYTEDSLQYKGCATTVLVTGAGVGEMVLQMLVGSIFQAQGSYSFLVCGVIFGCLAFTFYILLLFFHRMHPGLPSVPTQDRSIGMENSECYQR
The assay is described as follows: affinity purification with mass spectrometry; lysate of SUNE1 cells stably transfected with FLAG-MFSD4A; anti-Flag antibodies or IgG overnight at 4 °C, protein A/G magnetic beads, SDS-PAGE, mass spectrometry.

Chains of the proteins cited; added tags and fusions are not shown. Residues count along the entry.
UniProt P29317, residues 24-976: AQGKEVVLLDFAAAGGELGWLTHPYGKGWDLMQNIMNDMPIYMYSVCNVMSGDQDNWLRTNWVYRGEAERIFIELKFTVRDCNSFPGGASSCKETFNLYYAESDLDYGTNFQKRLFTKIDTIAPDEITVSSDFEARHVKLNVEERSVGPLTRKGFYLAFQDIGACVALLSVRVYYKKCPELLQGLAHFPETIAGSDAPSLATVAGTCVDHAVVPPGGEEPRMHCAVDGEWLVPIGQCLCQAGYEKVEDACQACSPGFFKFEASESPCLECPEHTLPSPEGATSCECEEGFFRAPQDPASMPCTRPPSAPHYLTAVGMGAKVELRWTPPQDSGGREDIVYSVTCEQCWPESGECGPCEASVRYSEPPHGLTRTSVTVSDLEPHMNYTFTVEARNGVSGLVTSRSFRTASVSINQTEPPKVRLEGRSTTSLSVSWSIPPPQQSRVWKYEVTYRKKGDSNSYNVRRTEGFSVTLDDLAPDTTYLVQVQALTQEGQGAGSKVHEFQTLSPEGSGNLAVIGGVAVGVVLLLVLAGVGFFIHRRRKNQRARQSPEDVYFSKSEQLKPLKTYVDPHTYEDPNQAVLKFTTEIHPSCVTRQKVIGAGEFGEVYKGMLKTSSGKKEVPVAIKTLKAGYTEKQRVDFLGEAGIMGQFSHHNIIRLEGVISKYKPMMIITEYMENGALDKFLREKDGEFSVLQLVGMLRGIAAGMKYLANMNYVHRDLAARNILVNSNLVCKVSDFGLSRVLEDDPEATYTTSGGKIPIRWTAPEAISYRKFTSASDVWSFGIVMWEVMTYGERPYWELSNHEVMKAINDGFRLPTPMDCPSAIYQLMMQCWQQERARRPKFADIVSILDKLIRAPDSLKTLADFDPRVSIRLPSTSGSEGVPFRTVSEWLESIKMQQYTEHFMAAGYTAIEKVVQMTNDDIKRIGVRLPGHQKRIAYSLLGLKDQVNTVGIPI

Results are given in words; binding and its absence hold for the method and conditions named. In cells and extracts the contact can be indirect. These calls come from enrichment with a bait or labelling near it, and not all partners need be listed. Where a sequence is shown, tags or fusion partners need not be part of it.

With “EPH receptor A2 (EPHA2), endogenous in SUNE1 cells (from UniProt P29317 24-976)”, the binding entry is listed as “binds”.

The values above are taken from publication PMC9001682.
